Source: the supplement of paper PMC3682954
Structures can show the parent of a compound that is named as a salt. ± gives the standard deviation of the averaged measurements. The list shows a part of the results. Repeats are few or missing, and single values can be far off.

Test system: RAW 264.7
Test: HMGB1-induced TNF-alpha production relative to HMGB1-stimulated control; higher = more TNF-alpha secretion (less inhibition)
Details: stimulus: HMGB1 5 ug/ml, 18 h
[1] = compound concentration: 1 ug/ml

Compound	HMGB1-induced TNF-alpha production (compound concentration: 3 uM) [%]	HMGB1-induced TNF-alpha production [1] [%]
CCCNC(C)(C)COC(=O)c1ccccc1 [Meprylcaine hydrochloride]	148	–
OC[C@H]1NC[C@@H](O)[C@@H]1O [1,4-Dideoxy-1,4-imino-D-arabinitol]	78	–
C[N+](C)(CCOc1ccccc1)Cc1ccccc1.O=C([O-])c1cc2ccccc2cc1O [Bephenium hydroxynaphthoate]	106	–
Cc1nc2c([nH]1)c(=O)n(C)c(=O)n2Cc1ccco1 [Furafylline]	103 ± 26	–
CC(=O)O[C@H]1[C@H](C)OC=C[C@@H]1OC(C)=O [3,4-Di-O-acetyl-6-deoxy-L-glucal]	–	104
CC(NCCc1ccc(O)cc1)C(O)c1ccc(O)cc1 (stereo not drawn) [Ritodrine hydrochloride]	43.6 ± 16	–
CC(NCCc1ccc(O)cc1)C(O)c1ccc(O)cc1 (stereo not drawn)	50.5	–
NC[C@@H]1O[C@H](O[C@H]2[C@@H](O)[C@H](O[C@@H]3[C@@H](O)[C@H](N)C[C@H](N)[C@H]3O[C@H]3O[C@H](CN)[C@@H](O)[C@H](O)[C@H]3N)O[C@@H]2CO)[C@H](N)[C@@H](O)[C@@H]1O [Neomycin]	118	–
NC[C@@H]1O[C@H](O[C@H]2[C@@H](O)[C@H](O[C@@H]3[C@@H](O)[C@H](N)C[C@H](N)[C@H]3O[C@H]3O[C@H](CN)[C@@H](O)[C@H](O)[C@H]3N)O[C@@H]2CO)[C@H](N)[C@@H](O)[C@@H]1O [Neomycin B sulfate; Neomycin Trisulfate]	–	70.6
CC(=O)Nc1ccc(OC(C)=O)cc1	80.2	–
NC1CCN(c2c(F)cc3c(=O)c(C(=O)O)cn(C4CC4)c3c2Cl)C1 (stereo not drawn) [Clinafloxacin]	108	–
CCC1(C)CC(=O)NC1=O (stereo not drawn) [Ethosuximide]	89.8 ± 16	–
CCC1(C)CC(=O)NC1=O (stereo not drawn)	99.2	–
COc1cc(CNC(=O)CCCCCCC(C)C)ccc1O [Dihydrocapsaicin]	90.3	46.8
CCCc1nn(C)c2c(=O)[nH]c(-c3cc(S(=O)(=O)N4CCN(C)CC4)ccc3OCC)nc12 [Sildenafil]	108 ± 33	–
NNC(=O)c1ccncc1.Nc1ccc(C(=O)O)c(O)c1	76.6	–
CCCCS(=N)(=O)CCC(N)C(=O)O [L-Buthionine-sulfoximine]	91.9	–
COc1cccc(OC)c1OCCNCC1CSc2ccccc2O1 (stereo not drawn) [Benoxathian hydrochloride]	74.7	–
C[C@@H]1CN(c2c(F)c(F)c3c(=O)c(C(=O)O)cn(C4CC4)c3c2F)C[C@H](C)N1	74.6	–
CCC(C)(C)C(=O)O[C@H]1C[C@@H](C)C=C2C=C[C@H](C)[C@H](CC[C@@H]3C[C@@H](O)CC(=O)O3)[C@H]21 [Simvastatin]	140 ± 31	–
CCC(C)(C)C(=O)O[C@H]1C[C@@H](C)C=C2C=C[C@H](C)[C@H](CC[C@@H]3C[C@@H](O)CC(=O)O3)[C@H]21	130	–
CC(=O)Oc1ccc(C(c2ccc(OC(C)=O)cc2)c2ccccn2)cc1	87.1	–
CC(=O)Oc1ccc(C(c2ccc(OC(C)=O)cc2)c2ccccn2)cc1 [Bisacodyl]	83.4 ± 12	–
O=C1Nc2ccc(Cl)cc2[C@@](C#CC2CC2)(C(F)(F)F)O1 [Efavirenz]	75.3 ± 8	–
O=C1Nc2ccc(Cl)cc2[C@@](C#CC2CC2)(C(F)(F)F)O1	86.8	–
Nc1ccc(C(=O)O)c(O)c1 [4-Aminosalicylic acid]	86.6	–

Taken from above.
For HMGB1-induced TNF-alpha production (compound concentration: 3 uM) [%], NC[C@@H]1O[C@H](O[C@H]2[C@@H](O)[C@H](O[C@@H]3[C@@H](O)[C@H](N)C[C@H](N)[C@H]3O[C@H]3O[C@H](CN)[C@@H](O)[C@H](O)[C@H]3N)O[C@@H]2CO)[C@H](N)[C@@H](O)[C@@H]1O [Neomycin] shows 118
For HMGB1-induced TNF-alpha production (compound concentration: 3 uM) [%], COc1cccc(OC)c1OCCNCC1CSc2ccccc2O1 (stereo not drawn) [Benoxathian hydrochloride] shows 74.7

Later entries:

Compound	HMGB1-induced TNF-alpha production (compound concentration: 3 uM) [%]	HMGB1-induced TNF-alpha production [1] [%]
Nc1ccc(C(=O)O)c(O)c1	82.8	–
Nc1ccc(C(=O)O)c(O)c1 [4-aminosalicylic acid]	119	–
CCCCCCCCCCCCCCCCCCNC(=O)OCC(COP(=O)([O-])OCC[n+]1ccsc1)OC (stereo not drawn)	120	–
O=C(O)c1ccccc1Nc1cccc(C(F)(F)F)c1	104	–
O=C(O)c1ccccc1Nc1cccc(C(F)(F)F)c1 [Flufenamic acid]	86.1 ± 24	–
CC[N+](C)(CC)CCC[n+]1c(-c2ccccc2)c2cc(N)ccc2c2ccc(N)cc21 [Propidium iodide]	110	–
O=C(c1ccc(F)cc1)C1CCN(CCn2c(=S)[nH]c3ccccc3c2=O)CC1 [Altanserin]	107	–
OCCc1ccccc1	96.5	–
CC(=O)Nc1ccc(S(=O)(=O)c2ccc(NC(C)=O)cc2)cc1	85.1	–
O=C1O[C@H]([C@@H](O)CO)C(O)=C1O [L(+)-Ascorbic acid]	–	71.8
O=C1O[C@H]([C@@H](O)CO)C(O)=C1O	89.27 ± 0.58	–
O=C1O[C@H]([C@@H](O)CO)C(O)=C1O [Ascorbic acid]	78.9	–
OC[C@H]1O[C@@H](Oc2cccc3cccnc23)[C@H](O)[C@@H](O)[C@@H]1O [8-Hydroxyquinoline beta-D-glucopyranoside]	–	70.1
Clc1ccc(C(c2ccccc2Cl)C(Cl)Cl)cc1 (stereo not drawn)	81.2	–
Clc1ccc(C(c2ccccc2Cl)C(Cl)Cl)cc1 (stereo not drawn) [Mitotane]	101	–
Clc1ccc(C(c2ccccc2Cl)C(Cl)Cl)cc1 (stereo not drawn) [1-(2-Chlorophenyl)-1-(4-chlorophenyl)-2,2-dichloroethane]	75.3	–
CC1=CC(=O)C2=C(C)CC[C@@H]3[C@H](OC(=O)[C@H]3C)[C@@H]12 [Leucomisine]	139	–
CCc1cc(Cl)c(OC)c(C(=O)NC[C@@H]2CCCN2CC)c1O	98.1	–
CN(C)CCOC(=O)C(c1ccccc1)C1(O)CCCC1 (stereo not drawn) [Cyclopentolate hydrochloride]	121	–
CN(C)CCOC(=O)C(c1ccccc1)C1(O)CCCC1 (stereo not drawn)	61.9	–
Nc1ccc(/N=N/c2ccccc2)c(N)n1 [Phenazopyridine hydrochloride]	87.1	–
Nc1ccc(/N=N/c2ccccc2)c(N)n1	79.8	–
CCC(=O)O[C@]1(C(=O)SCF)[C@H](C)C[C@H]2[C@@H]3C[C@H](F)C4=CC(=O)C=C[C@]4(C)[C@@]3(F)[C@@H](O)C[C@@]21C	40.3	–
CCC(=O)O[C@]1(C(=O)SCF)[C@H](C)C[C@H]2[C@@H]3C[C@H](F)C4=CC(=O)C=C[C@]4(C)[C@@]3(F)[C@@H](O)C[C@@]21C [Fluticasone propionate]	33.8	–
Nc1[nH]c(=O)ncc1F	95.3	–
OCCN1CCN(CC/C=C2/c3ccccc3Sc3ccc(Cl)cc32)CC1 [Zuclopenthixol hydrochloride]	48.2	–
